Results published in publication PMC5789818.
Results are given in words; binding and its absence hold for the method and conditions named. In cells and extracts the contact can be indirect. Some results given as binding are weak or reduced against the parent protein; the word gives no strength.

Protein sequences, listed by entry. Tags and fused reporters are not part of them.
UniProt Q14974: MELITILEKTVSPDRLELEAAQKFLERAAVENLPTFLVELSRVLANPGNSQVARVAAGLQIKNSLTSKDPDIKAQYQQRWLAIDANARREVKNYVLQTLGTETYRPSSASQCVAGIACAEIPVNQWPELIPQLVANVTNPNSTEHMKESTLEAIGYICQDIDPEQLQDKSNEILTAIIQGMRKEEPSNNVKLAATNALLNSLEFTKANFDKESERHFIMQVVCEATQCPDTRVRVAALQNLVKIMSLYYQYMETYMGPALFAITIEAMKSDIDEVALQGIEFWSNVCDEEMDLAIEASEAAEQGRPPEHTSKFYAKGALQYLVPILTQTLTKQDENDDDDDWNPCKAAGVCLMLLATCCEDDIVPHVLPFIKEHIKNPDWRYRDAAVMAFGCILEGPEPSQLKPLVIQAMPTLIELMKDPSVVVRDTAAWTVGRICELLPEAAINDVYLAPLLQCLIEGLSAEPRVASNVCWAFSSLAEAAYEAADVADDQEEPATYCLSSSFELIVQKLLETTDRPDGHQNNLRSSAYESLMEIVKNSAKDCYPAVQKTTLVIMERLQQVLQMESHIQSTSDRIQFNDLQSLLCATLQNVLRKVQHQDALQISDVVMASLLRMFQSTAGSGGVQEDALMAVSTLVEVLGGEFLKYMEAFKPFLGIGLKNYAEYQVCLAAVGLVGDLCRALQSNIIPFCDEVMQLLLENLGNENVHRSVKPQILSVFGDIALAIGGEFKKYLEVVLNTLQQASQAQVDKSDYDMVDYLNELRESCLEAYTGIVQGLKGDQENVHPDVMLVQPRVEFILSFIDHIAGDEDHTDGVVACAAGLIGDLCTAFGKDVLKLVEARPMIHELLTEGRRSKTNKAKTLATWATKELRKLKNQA
UniProt P49792: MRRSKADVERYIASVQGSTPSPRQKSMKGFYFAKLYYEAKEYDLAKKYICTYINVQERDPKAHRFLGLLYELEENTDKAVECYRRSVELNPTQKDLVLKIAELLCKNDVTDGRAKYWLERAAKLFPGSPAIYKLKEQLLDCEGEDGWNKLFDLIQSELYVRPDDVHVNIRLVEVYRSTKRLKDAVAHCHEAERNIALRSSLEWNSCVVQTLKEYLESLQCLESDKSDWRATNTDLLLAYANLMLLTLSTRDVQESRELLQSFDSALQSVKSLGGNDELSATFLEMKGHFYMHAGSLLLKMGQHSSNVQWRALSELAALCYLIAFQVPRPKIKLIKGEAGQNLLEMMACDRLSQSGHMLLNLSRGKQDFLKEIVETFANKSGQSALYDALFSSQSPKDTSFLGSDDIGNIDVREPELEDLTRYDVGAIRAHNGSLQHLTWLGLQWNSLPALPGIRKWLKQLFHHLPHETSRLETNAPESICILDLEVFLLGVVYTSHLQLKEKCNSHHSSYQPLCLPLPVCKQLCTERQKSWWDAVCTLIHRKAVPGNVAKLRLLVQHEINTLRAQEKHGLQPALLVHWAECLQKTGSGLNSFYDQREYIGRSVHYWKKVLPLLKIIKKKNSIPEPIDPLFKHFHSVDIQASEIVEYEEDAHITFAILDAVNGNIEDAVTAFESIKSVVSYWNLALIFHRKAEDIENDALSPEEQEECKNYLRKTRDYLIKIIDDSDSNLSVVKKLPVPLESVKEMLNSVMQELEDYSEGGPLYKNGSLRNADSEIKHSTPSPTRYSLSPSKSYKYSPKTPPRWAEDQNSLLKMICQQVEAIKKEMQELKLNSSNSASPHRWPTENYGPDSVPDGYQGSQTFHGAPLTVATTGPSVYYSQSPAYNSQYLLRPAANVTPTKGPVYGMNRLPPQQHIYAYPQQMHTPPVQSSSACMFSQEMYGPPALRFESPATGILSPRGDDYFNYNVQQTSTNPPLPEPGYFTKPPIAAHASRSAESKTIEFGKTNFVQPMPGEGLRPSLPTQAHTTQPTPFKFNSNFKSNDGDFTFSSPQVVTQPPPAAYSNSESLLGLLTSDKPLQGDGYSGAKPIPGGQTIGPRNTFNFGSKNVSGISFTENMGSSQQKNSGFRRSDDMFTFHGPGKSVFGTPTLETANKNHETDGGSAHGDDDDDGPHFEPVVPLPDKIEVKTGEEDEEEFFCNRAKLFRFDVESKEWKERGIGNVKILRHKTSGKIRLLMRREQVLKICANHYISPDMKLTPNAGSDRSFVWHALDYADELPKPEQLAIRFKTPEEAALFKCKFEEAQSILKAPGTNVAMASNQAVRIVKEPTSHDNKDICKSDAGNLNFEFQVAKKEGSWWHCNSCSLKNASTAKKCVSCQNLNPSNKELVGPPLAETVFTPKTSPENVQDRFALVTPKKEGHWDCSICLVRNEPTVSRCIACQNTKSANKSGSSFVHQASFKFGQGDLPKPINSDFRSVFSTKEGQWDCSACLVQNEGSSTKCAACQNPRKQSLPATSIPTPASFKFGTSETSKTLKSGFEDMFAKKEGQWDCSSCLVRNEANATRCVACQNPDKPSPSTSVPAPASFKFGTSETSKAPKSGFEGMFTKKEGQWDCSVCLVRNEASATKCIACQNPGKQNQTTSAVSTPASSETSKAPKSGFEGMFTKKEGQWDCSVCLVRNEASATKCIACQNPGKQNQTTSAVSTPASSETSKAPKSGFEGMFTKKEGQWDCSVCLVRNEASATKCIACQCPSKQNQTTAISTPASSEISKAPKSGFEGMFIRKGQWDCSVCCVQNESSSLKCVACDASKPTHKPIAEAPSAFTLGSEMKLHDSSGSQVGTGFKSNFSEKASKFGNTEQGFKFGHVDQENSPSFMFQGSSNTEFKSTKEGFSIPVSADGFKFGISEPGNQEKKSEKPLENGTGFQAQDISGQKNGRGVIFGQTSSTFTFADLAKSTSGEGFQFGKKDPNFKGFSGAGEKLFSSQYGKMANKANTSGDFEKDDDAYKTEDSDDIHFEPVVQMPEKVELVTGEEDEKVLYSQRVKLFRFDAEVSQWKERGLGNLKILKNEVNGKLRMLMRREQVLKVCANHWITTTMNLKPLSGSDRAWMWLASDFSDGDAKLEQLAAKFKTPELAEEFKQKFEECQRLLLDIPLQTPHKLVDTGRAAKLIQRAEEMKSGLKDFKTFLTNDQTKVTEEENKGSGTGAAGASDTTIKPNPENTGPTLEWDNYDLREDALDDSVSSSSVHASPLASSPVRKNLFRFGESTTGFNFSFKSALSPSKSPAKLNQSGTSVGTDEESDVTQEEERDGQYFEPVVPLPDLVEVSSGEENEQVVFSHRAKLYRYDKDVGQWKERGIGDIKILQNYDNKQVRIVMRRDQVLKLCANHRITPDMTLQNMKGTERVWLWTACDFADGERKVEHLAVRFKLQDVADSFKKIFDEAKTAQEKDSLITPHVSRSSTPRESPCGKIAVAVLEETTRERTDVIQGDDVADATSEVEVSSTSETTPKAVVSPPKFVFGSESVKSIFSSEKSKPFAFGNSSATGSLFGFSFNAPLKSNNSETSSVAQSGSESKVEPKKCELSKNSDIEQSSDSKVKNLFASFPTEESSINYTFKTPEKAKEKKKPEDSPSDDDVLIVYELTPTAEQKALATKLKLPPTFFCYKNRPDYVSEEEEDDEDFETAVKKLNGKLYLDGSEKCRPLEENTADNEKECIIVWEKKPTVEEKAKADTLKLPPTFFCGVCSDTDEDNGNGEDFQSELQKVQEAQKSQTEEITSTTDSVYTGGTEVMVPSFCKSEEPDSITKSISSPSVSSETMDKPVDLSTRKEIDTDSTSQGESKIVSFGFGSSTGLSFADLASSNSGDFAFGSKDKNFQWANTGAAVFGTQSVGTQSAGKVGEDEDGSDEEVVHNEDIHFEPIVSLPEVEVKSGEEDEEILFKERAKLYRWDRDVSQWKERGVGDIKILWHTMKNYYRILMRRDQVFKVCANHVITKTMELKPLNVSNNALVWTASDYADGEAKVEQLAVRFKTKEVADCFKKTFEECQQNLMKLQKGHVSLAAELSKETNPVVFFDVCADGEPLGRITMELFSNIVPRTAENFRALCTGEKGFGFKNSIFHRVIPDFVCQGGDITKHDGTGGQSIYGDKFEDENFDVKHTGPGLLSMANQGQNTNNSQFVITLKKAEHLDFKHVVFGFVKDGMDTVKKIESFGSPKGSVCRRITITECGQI
UniProt O43684: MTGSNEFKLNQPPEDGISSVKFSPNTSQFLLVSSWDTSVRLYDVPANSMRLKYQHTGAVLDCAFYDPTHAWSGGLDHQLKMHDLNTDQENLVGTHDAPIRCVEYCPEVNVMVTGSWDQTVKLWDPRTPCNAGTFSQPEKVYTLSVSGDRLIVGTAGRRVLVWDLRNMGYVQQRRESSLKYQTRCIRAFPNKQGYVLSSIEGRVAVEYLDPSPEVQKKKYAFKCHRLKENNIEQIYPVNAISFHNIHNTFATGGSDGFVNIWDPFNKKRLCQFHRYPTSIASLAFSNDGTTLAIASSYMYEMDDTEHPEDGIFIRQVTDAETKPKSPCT

Experiments:
[1] = target: Human karyopherin beta-1/importin beta-1 (human (endogenous in HeLa)) (UniProt Q14974); experiment: condition: only cells treated with 50 μM Importazole; proximity ligation; in situ PLA (Duolink) in fixed HeLa cells treated with 50 μM Importazole for the last 2-3 hours of culture
[2] = target: Human karyopherin beta-1/importin beta-1 (human (endogenous in HeLa)) (UniProt Q14974); experiment: proximity ligation; in situ PLA (Duolink) in fixed HeLa cells, mouse and rabbit primary antibodies for each pair; non-synchronized and RO3306-synchronized cultures; automated 40x acquisition and 100x high-resolution imaging of mitotic cells
[3] = target: Human karyopherin beta-1/importin beta-1 (human (endogenous in HeLa)) (UniProt Q14974); experiment: as above; remark: listed apart in the source

Row | binding [1] | binding [2] | binding [3] | Molecule
1 | no binding | binds | – | E3 SUMO-protein ligase RanBP2 (from UniProt P49792 1-3224)
2 | no binding | binds | – | Mitotic checkpoint protein BUB3 (from UniProt O43684 1-328)
3 | no binding | – | binds | Nucleolar spindle-associated protein 1 (protein, UniProt Q9BXS6 1-441) MIIPSLEELDSLKYSDLQNLAKSLGLRANLRATKLLKALKGYIKHEARKGNENQDESQTSASSCDETEIQISNQEEAERQPLGHVTKTRRRCKTVRVDPDSQQNHSEIKISNPTEFQNHEKQESQDLRATAKVPSPPDEHQEAENAVSSGNRDSKVPSEGKKSLYTDESSKPGKNKRTAITTPNFKKLHEAHFKEMESIDQYIERKKKHFEEHNSMNELKQQPINKGGVRTPVPPRGRLSVASTPISQRRSQGRSCGPASQSTLGLKGSLKRSAISAAKTGVRFSAATKDNEHKRSLTKTPARKSAHVTVSGGTPKGEAVLGTHKLKTITGNSAAVITPFKLTTEATQTPVSNKKPVFDLKASLSRPLNYEPHKGKLKPWGQSKENNYLNQHVNRINFYKKTYKQPHLQTKEEQRKKREQERKEKKAKVLGMRRGLILAED
